Data published in the supplement of paper PMC12823440, “Inhibitors supercharge kinase turnover through native proteolytic circuits” (Nature, 2025).
Some of the results follow. Hit calls seldom repeat between salt and free forms of one compound.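 Kinases were expressed as nanoluciferase fusions in K562 cells and luminescence was read every 4 h between 2 and 18 h as percent of control, DMSO set to 100% and a positive control to 0%. A time point counts as decreased when the signal drops significantly (2 sigma). The hit call is the authors' own, does not follow from the count of time points alone, and its rule is not shown.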

Amino acid sequences for entries named in this document (tags omitted). A change or cut given only in a name is not applied to a line headed by its entry.
UniProt P21802, whole entry, looked up: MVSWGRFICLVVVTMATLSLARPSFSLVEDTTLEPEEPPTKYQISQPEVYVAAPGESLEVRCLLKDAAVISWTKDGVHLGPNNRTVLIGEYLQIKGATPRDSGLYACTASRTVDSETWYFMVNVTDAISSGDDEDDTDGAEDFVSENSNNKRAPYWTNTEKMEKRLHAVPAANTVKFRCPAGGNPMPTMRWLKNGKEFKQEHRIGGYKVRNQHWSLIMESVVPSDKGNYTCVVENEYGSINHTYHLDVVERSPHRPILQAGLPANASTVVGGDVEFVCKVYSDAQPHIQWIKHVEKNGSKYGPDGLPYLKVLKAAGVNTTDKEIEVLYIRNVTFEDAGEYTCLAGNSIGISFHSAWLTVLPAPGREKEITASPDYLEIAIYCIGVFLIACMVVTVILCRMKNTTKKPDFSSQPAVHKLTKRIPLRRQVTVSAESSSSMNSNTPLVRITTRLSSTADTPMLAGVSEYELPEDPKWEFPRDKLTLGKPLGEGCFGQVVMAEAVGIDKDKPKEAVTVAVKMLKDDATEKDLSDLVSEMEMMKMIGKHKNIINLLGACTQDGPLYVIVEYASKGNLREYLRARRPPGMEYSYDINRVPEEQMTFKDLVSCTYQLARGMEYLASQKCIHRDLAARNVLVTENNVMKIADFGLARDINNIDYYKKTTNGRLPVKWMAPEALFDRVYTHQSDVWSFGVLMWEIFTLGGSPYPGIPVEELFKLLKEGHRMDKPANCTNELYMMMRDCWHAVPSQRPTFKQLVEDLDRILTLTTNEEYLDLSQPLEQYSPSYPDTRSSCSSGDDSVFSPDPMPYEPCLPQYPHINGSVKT
UniProt Q12851: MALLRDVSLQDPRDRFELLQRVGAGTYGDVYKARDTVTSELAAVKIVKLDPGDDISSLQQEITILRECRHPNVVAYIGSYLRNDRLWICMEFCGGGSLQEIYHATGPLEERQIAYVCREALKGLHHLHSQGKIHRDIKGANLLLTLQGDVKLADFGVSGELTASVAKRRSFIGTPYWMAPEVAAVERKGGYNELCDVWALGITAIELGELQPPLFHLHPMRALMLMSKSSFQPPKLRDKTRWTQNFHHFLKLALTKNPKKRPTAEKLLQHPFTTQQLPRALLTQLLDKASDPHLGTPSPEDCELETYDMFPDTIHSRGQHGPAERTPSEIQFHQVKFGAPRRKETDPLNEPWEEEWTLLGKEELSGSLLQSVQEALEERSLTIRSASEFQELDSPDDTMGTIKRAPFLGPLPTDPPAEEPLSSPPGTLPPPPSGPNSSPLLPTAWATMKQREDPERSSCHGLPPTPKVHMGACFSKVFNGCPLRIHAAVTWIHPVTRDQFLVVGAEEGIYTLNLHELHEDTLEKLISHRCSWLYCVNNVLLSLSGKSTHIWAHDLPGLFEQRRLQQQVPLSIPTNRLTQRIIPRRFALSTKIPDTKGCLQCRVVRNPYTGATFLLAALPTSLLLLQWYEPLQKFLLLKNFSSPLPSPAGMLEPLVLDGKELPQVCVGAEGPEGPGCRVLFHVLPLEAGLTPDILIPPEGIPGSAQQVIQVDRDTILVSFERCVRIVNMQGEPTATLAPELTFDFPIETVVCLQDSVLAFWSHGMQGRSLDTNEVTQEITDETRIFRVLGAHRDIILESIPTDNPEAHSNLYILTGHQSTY
UniProt P43403: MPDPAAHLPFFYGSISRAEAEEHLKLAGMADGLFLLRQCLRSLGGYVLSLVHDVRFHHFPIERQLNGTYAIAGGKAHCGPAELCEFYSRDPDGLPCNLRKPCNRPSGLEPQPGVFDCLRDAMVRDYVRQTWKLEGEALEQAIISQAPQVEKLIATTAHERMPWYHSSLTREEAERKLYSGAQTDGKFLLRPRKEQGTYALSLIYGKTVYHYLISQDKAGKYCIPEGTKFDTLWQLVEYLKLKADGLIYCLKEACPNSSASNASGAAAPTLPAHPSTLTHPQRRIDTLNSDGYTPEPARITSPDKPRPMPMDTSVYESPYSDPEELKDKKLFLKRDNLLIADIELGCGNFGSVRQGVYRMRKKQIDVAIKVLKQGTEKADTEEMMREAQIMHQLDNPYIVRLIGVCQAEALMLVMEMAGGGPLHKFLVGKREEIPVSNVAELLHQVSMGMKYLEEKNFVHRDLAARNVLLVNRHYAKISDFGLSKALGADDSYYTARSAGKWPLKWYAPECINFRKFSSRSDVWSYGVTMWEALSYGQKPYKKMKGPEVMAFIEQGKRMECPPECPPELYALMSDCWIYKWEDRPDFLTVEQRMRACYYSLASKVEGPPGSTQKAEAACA
UniProt P53350, whole entry: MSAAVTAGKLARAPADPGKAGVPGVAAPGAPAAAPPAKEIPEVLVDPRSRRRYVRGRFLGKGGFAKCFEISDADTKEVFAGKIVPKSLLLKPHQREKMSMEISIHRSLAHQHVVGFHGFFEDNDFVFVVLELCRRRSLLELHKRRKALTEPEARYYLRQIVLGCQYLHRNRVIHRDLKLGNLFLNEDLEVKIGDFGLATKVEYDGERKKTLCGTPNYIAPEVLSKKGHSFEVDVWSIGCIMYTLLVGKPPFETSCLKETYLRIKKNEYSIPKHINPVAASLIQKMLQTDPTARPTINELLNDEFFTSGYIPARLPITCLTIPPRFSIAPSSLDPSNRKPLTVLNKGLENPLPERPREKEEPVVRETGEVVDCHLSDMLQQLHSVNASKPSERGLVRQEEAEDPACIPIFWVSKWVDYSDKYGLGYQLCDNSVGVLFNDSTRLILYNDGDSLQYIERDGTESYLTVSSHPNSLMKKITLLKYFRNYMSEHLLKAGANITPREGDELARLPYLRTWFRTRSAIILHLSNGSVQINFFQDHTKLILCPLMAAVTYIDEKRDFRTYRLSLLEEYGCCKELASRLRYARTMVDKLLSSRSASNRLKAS
UniProt P15056, whole entry, looked up: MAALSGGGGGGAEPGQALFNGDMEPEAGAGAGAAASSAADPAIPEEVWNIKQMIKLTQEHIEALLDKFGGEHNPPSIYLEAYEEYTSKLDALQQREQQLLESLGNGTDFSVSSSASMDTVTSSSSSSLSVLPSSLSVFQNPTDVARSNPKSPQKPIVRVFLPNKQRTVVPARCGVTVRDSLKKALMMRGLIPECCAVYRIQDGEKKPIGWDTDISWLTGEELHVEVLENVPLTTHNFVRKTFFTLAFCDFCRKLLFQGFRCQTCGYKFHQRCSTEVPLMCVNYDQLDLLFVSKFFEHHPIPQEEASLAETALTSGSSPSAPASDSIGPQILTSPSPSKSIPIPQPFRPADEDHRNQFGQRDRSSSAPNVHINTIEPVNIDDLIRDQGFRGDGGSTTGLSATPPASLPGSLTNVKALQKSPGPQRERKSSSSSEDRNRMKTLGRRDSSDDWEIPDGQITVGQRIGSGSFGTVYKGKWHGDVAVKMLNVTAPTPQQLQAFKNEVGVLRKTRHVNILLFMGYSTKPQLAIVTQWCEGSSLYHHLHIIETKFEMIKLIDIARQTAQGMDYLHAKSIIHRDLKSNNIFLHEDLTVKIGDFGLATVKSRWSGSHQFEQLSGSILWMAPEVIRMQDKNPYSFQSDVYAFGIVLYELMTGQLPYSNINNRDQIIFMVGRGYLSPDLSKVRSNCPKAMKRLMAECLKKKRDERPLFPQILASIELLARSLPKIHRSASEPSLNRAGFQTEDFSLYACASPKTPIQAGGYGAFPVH
UniProt Q8IWU2: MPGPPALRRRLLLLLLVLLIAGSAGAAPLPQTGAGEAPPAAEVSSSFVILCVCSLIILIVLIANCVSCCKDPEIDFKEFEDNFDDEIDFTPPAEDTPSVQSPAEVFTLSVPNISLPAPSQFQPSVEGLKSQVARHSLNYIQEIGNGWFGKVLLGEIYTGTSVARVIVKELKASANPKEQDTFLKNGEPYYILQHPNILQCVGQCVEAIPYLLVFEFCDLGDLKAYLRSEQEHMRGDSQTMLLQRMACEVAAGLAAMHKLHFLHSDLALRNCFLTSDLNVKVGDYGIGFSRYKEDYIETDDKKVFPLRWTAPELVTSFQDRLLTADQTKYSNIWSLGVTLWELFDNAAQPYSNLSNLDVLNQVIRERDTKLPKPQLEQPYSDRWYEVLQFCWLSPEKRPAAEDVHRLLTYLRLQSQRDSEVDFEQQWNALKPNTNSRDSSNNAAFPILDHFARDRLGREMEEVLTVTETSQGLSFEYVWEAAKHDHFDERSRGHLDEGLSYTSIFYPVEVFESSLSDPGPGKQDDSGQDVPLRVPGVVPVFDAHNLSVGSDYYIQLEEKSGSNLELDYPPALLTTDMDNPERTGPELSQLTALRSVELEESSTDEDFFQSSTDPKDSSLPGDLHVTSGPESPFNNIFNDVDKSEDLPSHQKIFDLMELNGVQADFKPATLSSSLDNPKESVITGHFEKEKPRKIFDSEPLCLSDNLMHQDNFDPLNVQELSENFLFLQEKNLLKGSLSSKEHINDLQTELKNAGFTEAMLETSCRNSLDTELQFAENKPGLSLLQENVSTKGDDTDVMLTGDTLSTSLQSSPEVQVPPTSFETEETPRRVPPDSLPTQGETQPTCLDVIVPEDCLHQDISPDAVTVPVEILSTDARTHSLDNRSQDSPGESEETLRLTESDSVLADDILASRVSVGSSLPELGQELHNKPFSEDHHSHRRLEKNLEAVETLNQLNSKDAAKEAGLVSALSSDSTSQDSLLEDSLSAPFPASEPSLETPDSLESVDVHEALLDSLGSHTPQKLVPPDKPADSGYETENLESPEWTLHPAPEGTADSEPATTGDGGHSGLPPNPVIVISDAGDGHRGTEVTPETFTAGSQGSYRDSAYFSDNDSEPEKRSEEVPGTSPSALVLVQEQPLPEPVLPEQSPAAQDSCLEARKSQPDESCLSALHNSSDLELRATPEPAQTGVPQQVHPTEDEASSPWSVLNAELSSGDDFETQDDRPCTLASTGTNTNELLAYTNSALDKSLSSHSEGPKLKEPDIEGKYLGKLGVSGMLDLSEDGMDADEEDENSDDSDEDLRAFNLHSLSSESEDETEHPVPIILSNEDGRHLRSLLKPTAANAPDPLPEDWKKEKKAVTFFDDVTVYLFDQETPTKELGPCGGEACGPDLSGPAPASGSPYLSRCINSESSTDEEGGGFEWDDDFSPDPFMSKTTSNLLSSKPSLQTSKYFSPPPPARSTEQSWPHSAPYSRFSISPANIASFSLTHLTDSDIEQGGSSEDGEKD
UniProt P31152, whole entry: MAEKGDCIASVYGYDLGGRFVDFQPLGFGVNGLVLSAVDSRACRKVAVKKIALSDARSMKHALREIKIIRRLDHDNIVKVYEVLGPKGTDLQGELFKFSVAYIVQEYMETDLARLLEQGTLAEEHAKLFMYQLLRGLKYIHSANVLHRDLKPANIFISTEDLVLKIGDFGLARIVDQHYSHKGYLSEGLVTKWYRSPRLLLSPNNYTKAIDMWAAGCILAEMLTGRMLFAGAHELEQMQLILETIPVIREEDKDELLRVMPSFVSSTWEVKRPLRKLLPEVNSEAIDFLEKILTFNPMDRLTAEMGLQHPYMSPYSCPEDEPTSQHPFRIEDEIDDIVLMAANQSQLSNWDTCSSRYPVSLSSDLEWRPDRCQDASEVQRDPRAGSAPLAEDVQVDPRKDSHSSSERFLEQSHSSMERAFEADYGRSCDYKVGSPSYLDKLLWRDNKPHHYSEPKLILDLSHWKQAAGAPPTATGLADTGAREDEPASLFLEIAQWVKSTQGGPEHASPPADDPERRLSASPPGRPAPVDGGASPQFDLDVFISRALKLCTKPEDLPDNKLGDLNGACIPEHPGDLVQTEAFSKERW

Legend:
Test in all cases: number of time points (of 5) at which kinase-Nluc abundance scored as decreased, DMSO-normalised (count); higher = more persistent destabilization
Umbralisib = compound: CC(C)Oc1ccc(-c2nn([C@@H](C)c3oc4ccc(F)cc4c(=O)c3-c3cccc(F)c3)c3ncnc(N)c23)cc1F [Umbralisib]; details: 2.5 µM; K562; 2-18 h
Bucladesine (calcium) = compound: CCCC(=O)Nc1ncnc2c1ncn2[C@@H]1O[C@@H]2COP(=O)(O)O[C@H]2[C@H]1OC(=O)CCC [Bucladesine (calcium)]; details: 10 µM; K562; 2-18 h
Bucladesine (sodium) = compound: CCCC(=O)Nc1ncnc2c1ncn2[C@@H]1O[C@@H]2COP(=O)(O)O[C@H]2[C@H]1OC(=O)CCC [Bucladesine (sodium)]; details: 10 µM; K562; 2-18 h
[1] = compound: CCCCCCCCc1ccc(CCC(N)(CO)CO)cc1 [Fingolimod (hydrochloride)]; details: 2.5 µM; K562; 2-18 h
Fingolimod = compound: CCCCCCCCc1ccc(CCC(N)(CO)CO)cc1 [Fingolimod]; details: 2.5 µM; K562; 2-18 h
[2] = compound: CCN(CC)CC(=O)Nc1c(C)cccc1C [Lidocaine (hydrochloride)]; details: 10 µM; K562; 2-18 h
Lidocaine = compound: CCN(CC)CC(=O)Nc1c(C)cccc1C [Lidocaine]; details: 10 µM; K562; 2-18 h
[3] = compound: CCN(CC)Cc1ccc(OC)c(-c2cc3c(-c4ccc(C(=O)O)c(C(C)C)c4)ccnc3[nH]2)c1; details: K562, 2-18 h
Baricitinib (phosphate) = compound: CCS(=O)(=O)N1CC(CC#N)(n2cc(-c3ncnc4[nH]ccc34)cn2)C1 [Baricitinib (phosphate)]; details: 10 µM; K562; 2-18 h
Baricitinib = compound: CCS(=O)(=O)N1CC(CC#N)(n2cc(-c3ncnc4[nH]ccc34)cn2)C1 [Baricitinib]; details: 10 µM; K562; 2-18 h
[4] = compound: CCS(=O)(=O)N1CCN(c2ccc(Nc3ncc(C(N)=O)c(NC4CC4)n3)cc2)CC1 [Cerdulatinib (hydrochloride)]; details: 10 µM; K562; 2-18 h
Cerdulatinib = compound: CCS(=O)(=O)N1CCN(c2ccc(Nc3ncc(C(N)=O)c(NC4CC4)n3)cc2)CC1 [Cerdulatinib]; details: 10 µM; K562; 2-18 h
[5] = compound: CCc1nc(C(N)=O)c(Nc2ccc(N3CCC(N4CCN(C)CC4)CC3)c(OC)c2)nc1NC1CCOCC1 [Gilteritinib hemifumarate]; details: 2 µM; K562; 2-18 h
Gilteritinib = compound: CCc1nc(C(N)=O)c(Nc2ccc(N3CCC(N4CCN(C)CC4)CC3)c(OC)c2)nc1NC1CCOCC1 [Gilteritinib]; details: 2 µM; K562; 2-18 h
[6] = compound: CN(C)C(=N)NC(=N)N [Metformin (hydrochloride)]; details: 10 µM; K562; 2-18 h
Metformin = compound: CN(C)C(=N)NC(=N)N [Metformin]; details: 10 µM; K562; 2-18 h
Ribociclib hydrochloride = compound: CN(C)C(=O)c1cc2cnc(Nc3ccc(N4CCNCC4)cn3)nc2n1C1CCCC1 [Ribociclib hydrochloride]; details: 2.5 µM; K562; 2-18 h
[7] = compound: CN(C)C(=O)c1cc2cnc(Nc3ccc(N4CCNCC4)cn3)nc2n1C1CCCC1 [Ribociclib succinate hydrate]; details: 2.5 µM; K562; 2-18 h
Ribociclib succinate = compound: CN(C)C(=O)c1cc2cnc(Nc3ccc(N4CCNCC4)cn3)nc2n1C1CCCC1 [Ribociclib succinate]; details: 10 µM; K562; 2-18 h
Ribociclib = compound: CN(C)C(=O)c1cc2cnc(Nc3ccc(N4CCNCC4)cn3)nc2n1C1CCCC1 [Ribociclib]; details: 10 µM; K562; 2-18 h

Target	number of time points (Umbralisib)	number of time points (Bucladesine (calcium))	number of time points (Bucladesine (sodium))	number of time points [1]	number of time points (Fingolimod)	number of time points [2]	number of time points (Lidocaine)	number of time points ([3]; 2.5 µM)	number of time points ([3]; 10 µM)	number of time points (Baricitinib (phosphate))	number of time points (Baricitinib)	number of time points [4]	number of time points (Cerdulatinib)	number of time points [5]	number of time points (Gilteritinib)	number of time points [6]	number of time points (Metformin)	number of time points (Ribociclib hydrochloride)	number of time points [7]	number of time points (Ribociclib succinate)	number of time points (Ribociclib)
EGFR_L718V (UniProt P00533)	0	0	0	0	0	0	0	0	0	0	0	0	0	0	0	0	0	0	0	0	0
ZAK (UniProt Q9NYL2)	0	0	0	0	0	0	0	0	0	0	0	0	0	0	0	0	0	0	0	0	0
FGFR2 (UniProt P21802)	0	0	0	0	0	0	0	0	0	0	0	3	1	0	0	0	0	0	0	0	0
EGFR (UniProt P00533)	0	0	0	0	0	0	0	0	0	0	0	0	0	0	0	0	0	0	0	0	0
MAP4K2 (UniProt Q12851)	0	0	0	0	0	0	0	0	0	0	0	0	0	0	0	0	0	0	0	0	0
LIMK1 (UniProt P53667)	0	0	0	0	0	0	0	0	0	0	0	4	4	0	0	0	0	0	0	0	0
STK24 (UniProt Q9Y6E0)	0	0	0	0	0	0	0	0	0	0	0	0	0	0	0	0	0	0	0	0	0
FLT3 (UniProt P36888)	0	0	0	0	0	0	0	0	0	0	0	4	0	0	0	0	0	0	0	0	0
ZAP70 (UniProt P43403)	0	0	0	0	0	0	0	0	0	0	0	0	0	0	0	0	0	0	0	0	0
PRKCA (UniProt P17252)	0	0	0	0	0	0	0	0	0	0	0	0	0			0	0	0	0	0	0
PLK1 (UniProt P53350)	0	0	0	0	0	0	0	0	0	0	0	0	0	0	0	0	0	0	0	0	0
BRAF (UniProt P15056)	0	0	0	0	0	0	0	0	0	0	0	0	1	0	0	0	0	0	0	0	0
LMTK2 (UniProt Q8IWU2)	0	0	0	0	0	0	0	2	0	0	0	3	4	0	0	0	0	0	0	0	0
MAPK4 (UniProt P31152)	0	0	0	0	0	0	0	0	0	0	0	0	0	0	0	0	0	0	0	0	0
ARAF (UniProt P10398)	0	0	0	0	0	0	0	0	0	0	0	0	0	0	0	0	0	0	0	0	0

Some entries already given, limited to number of time points (Lidocaine), number of time points (Umbralisib) and number of time points (Ribociclib):
Target	number of time points (Lidocaine)	number of time points (Umbralisib)	number of time points (Ribociclib)
LIMK1 (UniProt P53667)	0	0	0
STK24 (UniProt Q9Y6E0)	0	0	0
